Data taken from ChEMBL document CHEMBL3988442, “University of Dundee, Small-Polar-MMV Screening Library” (2021).

Each number is a percent effect as filed.
How 0% and 100% were set is not recorded. Most values in the screen are low, and negative values occur.
This is an unselected part of the compounds tested.

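Whole-parasite assay of Trypanosoma brucei over 72 hours; the read-out is not stated. Tested at 10 µM. The record gives no direction; compounds that gave an IC50 in retests scored well above the rest, so higher reads as stronger inhibition. Values scatter widely below zero; nearly all retest evidence comes from the higher of the two concentrations used. About 2,700 compounds were tested under these conditions; 0.51% (about 14) showed 50% or more at least once.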

| # | Compound | percent effect |
|---|---|---|
| 1 | `Cc1cnn(CC2CCCN2Cc2nnc(C3CC3)n2C)c1` (stereo not drawn) | -45.04 |
| 2 | `CC(OCC1CC1)C(=O)N1CCCN(Cc2cscn2)CC1` (stereo not drawn) | -94.09 |
| 3 | `COc1cccc(C2CCCN2CCCNS(C)(=O)=O)c1` (stereo not drawn) | -9.022 |
| 4 | `Cc1cnn(CC2CN(CC(=O)Nc3ccncc3)CCO2)c1` (stereo not drawn) | 7.623 |
| 5 | `Cc1cc(C)cc(CNC(c2ccccc2)c2nccn2C)c1` (stereo not drawn) | -48.62 |
| 6 | `Clc1ccccc1Cn1cc(CNC2CCc3ncnn3C2)cn1` (stereo not drawn) | -34.16 |
| 7 | `Cc1nn(C)c(C)c1C1CCCN1C(=O)CCc1ccco1` (stereo not drawn) | -38.57 |
| 8 | `CC(Cc1ccco1)NC(=O)Nc1ccc(N2CCCC2)nc1` (stereo not drawn) | -10.11 |
| 9 | `O=C(CCc1ccccn1)N1CCCN(C(=O)CC2CCCC2)CC1` | -67.62 |
| 10 | `CCn1ccnc1CN1CCCN(C(=O)c2csc(C)n2)CC1` | -50.55 |
| 11 | `Cc1nn(C)c(N2CCOCC2)c1CNC1CCC(O)CC1` (stereo not drawn) | -3.996 |
| 12 | `CC(Cc1ccccc1Cl)NC(=O)Nc1cnn(CC(N)=O)c1` (stereo not drawn) | 8.562 |
| 13 | `c1cnnc(N2CCCC2CNCc2cccs2)c1` (stereo not drawn) | -51.26 |
| 14 | `COCc1nc(C(=O)N2CCCC2c2cc(C)on2)cs1` (stereo not drawn) | -8.617 |
| 15 | `CC(Cn1ccnc1)NC(=O)NCc1ccccn1` (stereo not drawn) | -13.14 |
| 16 | `O=C(NCCCNc1ccc(C(F)(F)F)cn1)c1ccc(F)cc1F` | -30.82 |
| 17 | `Cc1cnn(CC2CCCN2Cc2nccn2CC(F)(F)F)c1` (stereo not drawn) | -34.56 |
| 18 | `Cc1ccccc1C(C)N(C)Cc1nc2c(cnn2C)c(=O)[nH]1` (stereo not drawn) | -38.18 |
| 19 | `Cc1cnn(CC2CCCN2Cc2cc(C)on2)c1` (stereo not drawn) | -36.19 |
| 20 | `Cc1nc(CN(C)C2CCN(CCc3cnn(C)c3)C2)no1` (stereo not drawn) | -32.63 |
| 21 | `O=C(CN1CCC(c2ccnn2CCO)CC1)NC1CCCC1` | -2.159 |
| 22 | `Cc1cn2c(n1)CCC(NC(=O)c1csc(C(C)C)n1)C2` (stereo not drawn) | -43.31 |
| 23 | `CC(=O)N(Cc1noc(C)n1)C1CCN(Cc2ccc(C#N)cc2)C1` (stereo not drawn) | -38.22 |
| 24 | `CSCCC(=O)N1CCCC(n2ccnc2)C1` (stereo not drawn) | -20.92 |
| 25 | `CC(C)CCC(=O)N(C)CC(=O)Nc1ccc(Br)cn1` | -8.37 |
| 26 | `COc1ccc(C(=O)N(C)Cc2nnc3ccccn23)cc1` | -71 |
| 27 | `O=C(NCCCNc1ccc(C(F)(F)F)cn1)c1ccc2c(c1)OCO2` | -42.23 |
| 28 | `CCc1noc(C(C)N2CCN(CC)CC2)n1` (stereo not drawn) | -34.97 |
| 29 | `CCC(C#N)NC(=O)c1cc(Br)c2c(c1)OCCO2` (stereo not drawn) | -19.86 |
| 30 | `Cc1cccnc1NC(=O)NCc1cccnc1OC(C)C` | -14.8 |
| 31 | `O=C(CN1CCC(c2ccnn2CCO)CC1)NCc1ccco1` | -47.08 |
| 32 | `CCn1ccnc1CN1CCN(CC(O)CN2CCOCC2)CC1` (stereo not drawn) | -71.61 |
| 33 | `Cc1ccoc1C(=O)N1CCCN(Cc2cnn(C)c2)CC1` | -17.2 |
| 34 | `c1ccc2oc(CN3CCCC(Cn4cncn4)C3)nc2c1` (stereo not drawn) | -76.54 |
| 35 | `CC(NC(=O)NCCCO)c1ccc2c(c1)NC(=O)CO2` (stereo not drawn) | -12.67 |
| 36 | `OC(CNCCn1cccn1)c1cccc(F)c1` (stereo not drawn) | -6.735 |

Repeated from the top, 4 entries:

| Compound | percent effect |
|---|---|
| `Cc1cnn(CC2CCCN2Cc2nnc(C3CC3)n2C)c1` (stereo not drawn) | -45.04 |
| `CC(OCC1CC1)C(=O)N1CCCN(Cc2cscn2)CC1` (stereo not drawn) | -94.09 |
| `COc1cccc(C2CCCN2CCCNS(C)(=O)=O)c1` (stereo not drawn) | -9.022 |
| `Cc1cnn(CC2CN(CC(=O)Nc3ccncc3)CCO2)c1` (stereo not drawn) | 7.623 |